Consider two molecules from publication PMC5707354 (Nature Communications, 2017).

The chains behind the UniProt entries cited, without tags or fusion partners. Where a name states a change or a piece, a line headed by the entry shows the natural chain unless it says otherwise. A line that says so, or that is headed by a name, gives the form on record, which may keep a tag or linker.
His-tagged NMVI_(TAIL) (Q9UM54, form named): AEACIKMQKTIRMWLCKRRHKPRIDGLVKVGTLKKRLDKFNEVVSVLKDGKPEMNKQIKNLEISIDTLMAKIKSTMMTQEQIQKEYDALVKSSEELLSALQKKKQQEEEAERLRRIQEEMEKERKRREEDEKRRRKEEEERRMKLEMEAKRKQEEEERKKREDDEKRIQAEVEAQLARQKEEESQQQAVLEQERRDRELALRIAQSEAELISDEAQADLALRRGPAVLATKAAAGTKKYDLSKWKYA
His-tagged NCBD_(1060-1120) (Q9UM54, form named): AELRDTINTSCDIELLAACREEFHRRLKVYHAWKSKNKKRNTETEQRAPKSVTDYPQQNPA

Results are given in words; binding and its absence hold for the method and conditions named. For some assays here: Binding seen in cells or lysates may run through a third protein. Some results given as binding are weak or reduced against the parent protein; the word gives no strength.

The target of test [1] is His-tagged NMVI_(TAIL) (human) (UniProt Q9UM54). Briefly: pull-down; His-tagged NMVI_TAIL bait on His Mag Sepharose Ni beads; bait and prey both at 10 uM (CBD) or 5 uM (CoCoA); 50 mM Tris-HCl pH 7.5, 500 mM NaCl, 40 mM imidazole, 1 mM DTT, 30 min, 25 C; SDS-PAGE of pellet and supernatant; both purified.
The target of test [2] is His-tagged NCBD_(1060-1120) (human) (UniProt Q9UM54). Briefly: pull-down; His-tagged recombinant bait on Ni beads, HeLa nuclear extract (50 mM Tris-HCl pH 7.5, 500 mM NaCl, 40 mM imidazole, 1 mM DTT, 1% Triton X), 30 min; immunoblot against NDP52 or RNAPII phospho S5; only the target purified. On the technique in general: Immunoblotting shows a protein as a band on a membrane.

B1: CoCoA (recombinant) (protein, UniProt Q9P1Z2 1-691)
chain: MEESPLSRAPSRGGVNFLNVARTYIPNTKVECHYTLPPGTMPSASDWIGIFKVEAACVRDYHTFVWSSVPESTTDGSPIHTSVQFQASYLPKPGAQLYQFRYVNRQGQVCGQSPPFQFREPRPMDELVTLEEADGGSDILLVVPKATVLQNQLDESQQERNDLMQLKLQLEGQVTELRSRVQELERALATARQEHTELMEQYKGISRSHGEITEERDILSRQQGDHVARILELEDDIQTISEKVLTKEVELDRLRDTVKALTREQEKLLGQLKEVQADKEQSEAELQVAQQENHHLNLDLKEAKSWQEEQSAQAQRLKDKVAQMKDTLGQAQQRVAELEPLKEQLRGAQELAASSQQKATLLGEELASAAAARDRTIAELHRSRLEVAEVNGRLAELGLHLKEEKCQWSKERAGLLQSVEAEKDKILKLSAEILRLEKAVQEERTQNQVFKTELAREKDSSLVQLSESKRELTELRSALRVLQKEKEQLQEEKQELLEYMRKLEARLEKVADEKWNEDATTEDEEAAVGLSCPAALTDSEDESPEDMRLPPYGLCERGDPGSSPAGPREASPLVVISQPAPISPHLSGPAEDSSSDSEAEDEKSVLMAAVQSGGEEANLLLPELGSAFYDMASGFTVGTLSETSTGGPATPTWKECPICKERFPAESDKDALEDHMDGHFFFSTQDPFTFE
For B1, the binding result in test [1] is on record as “binds”.

B2: NDP52, endogenous (HeLa) (protein, UniProt Q13137 1-446)
chain: MEETIKDPPTSAVLLDHCHFSQVIFNSVEKFYIPGGDVTCHYTFTQHFIPRRKDWIGIFRVGWKTTREYYTFMWVTLPIDLNNKSAKQQEVQFKAYYLPKDDEYYQFCYVDEDGVVRGASIPFQFRPENEEDILVVTTQGEVEEIEQHNKELCKENQELKDSCISLQKQNSDMQAELQKKQEELETLQSINKKLELKVKEQKDYWETELLQLKEQNQKMSSENEKMGIRVDQLQAQLSTQEKEMEKLVQGDQDKTEQLEQLKKENDHLFLSLTEQRKDQKKLEQTVEQMKQNETTAMKKQQELMDENFDLSKRLSENEIICNALQRQKERLEGENDLLKRENSRLLSYMGLDFNSLPYQVPTSDEGGARQNPGLAYGNPYSGIQESSSPSPLSIKKCPICKADDICDHTLEQQQMQPLCFNCPICDKIFPATEKQIFEDHVFCHSL
Regarding B2, the binding entry in test [2] is “binds”.
